{"source": "the supplement of paper PMC12462457", "tested_on": "OVCAR8", "test": "cell count relative to DMSO vehicle (fold change); higher = more surviving senescent cells (less killing)", "conditions": "senescence inducer: cisplatin 10 µM 48 h, then 6 d recovery (CP senescent), exposure time 24 h", "note": "Where a name gives a salt, the structure may show the parent alone. ± gives the standard deviation of the averaged measurements. The list shows a part of the results. This data set is noisy: repeats of one test often differ as much as different tests do.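 Cells were counted by imaging DAPI-stained nuclei, and cells lacking phalloidin-stained cytoplasm were excluded as dead. Each well's count was divided by the median count of the vehicle wells on the same plate, and values were averaged over two replicate plates.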", "data": [{"compound": "S=P1(c2ccccc2)Nc2ccccc2O1", "note": "(stereo unspecified)", "values": [{"measurement": "cell count", "setting": "compound dose 1 µM", "result": "0.854 ± 0.07"}, {"measurement": "cell count", "setting": "compound dose 5 µM", "result": "0.666 ± 0.26"}]}, {"compound": "COc1cc2c(c(OC)c1OC)-c1ccc(OC)c(=O)cc1[C@@H](NC(C)=O)CC2", "note": "[Colchicine]", "values": [{"measurement": "cell count", "setting": "compound dose 1 µM", "result": "0.798 ± 0.077"}, {"measurement": "cell count", "setting": "compound dose 5 µM", "result": "0.729 ± 0.018"}]}, {"compound": "CN(C)C(=O)OC1=C(c2cccc3ccccc23)Oc2ccccc2-n2cccc21", "values": [{"measurement": "cell count", "setting": "compound dose 1 µM", "result": "0.948 ± 0.064"}, {"measurement": "cell count", "setting": "compound dose 5 µM", "result": "1.089 ± 0.005"}]}, {"compound": "CC1=CC(=O)[C@@H](O)[C@]2(C)[C@H]3[C@@H](O)[C@H](O)[C@]4(C)OC[C@@]35[C@@H](C[C@@H]12)OC(=O)[C@H](O)[C@]54O", "note": "[Bruceine D]", "values": [{"measurement": "cell count", "setting": "compound dose 1 µM", "result": "0.971 ± 0.14"}, {"measurement": "cell count", "setting": "compound dose 5 µM", "result": "0.869 ± 0.42"}]}, {"compound": "O=C(O)c1nn(Cc2ccc(Cl)cc2Cl)c2ccccc12", "values": [{"measurement": "cell count", "setting": "compound dose 1 µM", "result": "1.11 ± 0.13"}, {"measurement": "cell count", "setting": "compound dose 5 µM", "result": "0.618 ± 0.58"}]}, {"compound": "CCOC(=O)[C@H](Cc1ccc(F)cc1)NC(=O)[C@@H](N)Cc1ccc(N(CCCl)CCCl)cc1", "note": "[Melflufen (hydrochloride)]", "values": [{"measurement": "cell count", "setting": "compound dose 1 µM", "result": "0.634 ± 0.085"}, {"measurement": "cell count", "setting": "compound dose 5 µM", "result": "0.093 ± 0.035"}]}, {"compound": "CCN1CCN(C(=O)Cc2ccc(Nc3ncc(F)c(Nc4ccc(C(=O)Nc5ccccc5Cl)cc4)n3)cc2)CC1", "note": "[Aurora A Inhibitor I]", "values": [{"measurement": "cell count", "setting": "compound dose 1 µM", "result": "0.973 ± 0.052"}, {"measurement": "cell count", "setting": "compound dose 5 µM", "result": "0.651 ± 0.18"}]}, {"compound": "CO[C@H]1C[C@H](O[C@H]2CC[C@]3(C)[C@H]4CC[C@]5(C)[C@@H](C6=CC(=O)OC6)CC[C@]5(O)[C@@H]4CC[C@]3(O)C2)O[C@H](C)[C@H]1O[C@@H]1O[C@H](CO)[C@@H](O)[C@H](O)[C@H]1O", "note": "[Periplocin]", "values": [{"measurement": "cell count", "setting": "compound dose 1 µM", "result": "0.075 ± 0.014"}, {"measurement": "cell count", "setting": "compound dose 5 µM", "result": "0.0485 ± 0.019"}]}, {"compound": "N#Cc1cn([C@@H]2O[C@H](CO)[C@@H](O)[C@H]2O)c2ncnc(N)c12", "note": "[Toyocamycin]", "values": [{"measurement": "cell count", "setting": "compound dose 1 µM", "result": "0.344 ± 0.12"}, {"measurement": "cell count", "setting": "compound dose 5 µM", "result": "0.126 ± 0.023"}]}, {"compound": "C[C@@H]1CC[C@]2(NC1)O[C@H]1C[C@H]3[C@@H]4CC=C5C[C@@H](O)CC[C@]5(C)[C@H]4CC[C@]3(C)[C@H]1[C@@H]2C", "values": [{"measurement": "cell count", "setting": "compound dose 1 µM", "result": "1.19 ± 0.14"}, {"measurement": "cell count", "setting": "compound dose 5 µM", "result": "0.973 ± 0.2"}]}, {"compound": "Cc1ncc(C[n+]2csc(CCO)c2C)c(=O)[nH]1", "note": "[Oxythiamine]", "values": [{"measurement": "cell count", "setting": "compound dose 1 µM", "result": "0.8105 ± 0.00071"}, {"measurement": "cell count", "setting": "compound dose 5 µM", "result": "0.7435 ± 0.0035"}]}, {"compound": "Cn1c(COP(=O)(NCCBr)NCCBr)cnc1[N+](=O)[O-]", "note": "[Evofosfamide]", "values": [{"measurement": "cell count", "setting": "compound dose 1 µM", "result": "1.02 ± 0.23"}, {"measurement": "cell count", "setting": "compound dose 5 µM", "result": "0.92 ± 0.13"}]}, {"compound": "C[C@H]1CC[C@]2(NC1)O[C@H]1C[C@H]3[C@@H]4CC[C@H]5C[C@@H](O[C@@H]6O[C@H](CO)[C@H](O[C@@H]7O[C@H](CO)[C@@H](O)[C@H](O[C@@H]8OC[C@@H](O)[C@H](O)[C@H]8O)[C@H]7O[C@@H]7O[C@H](CO)[C@@H](O)[C@H](O)[C@H]7O)[C@H](O)[C@H]6O)CC[C@]5(C)[C@H]4CC[C@]3(C)[C@H]1[C@@H]2C", "note": "[Tomatine]", "values": [{"measurement": "cell count", "setting": "compound dose 1 µM", "result": "0.13 ± 0.042"}, {"measurement": "cell count", "setting": "compound dose 5 µM", "result": "0.0135 ± 0.012"}]}, {"compound": "O=C1C2CCN(CC2)C1(CO)CO", "values": [{"measurement": "cell count", "setting": "compound dose 1 µM", "result": "0.982 ± 0.17"}, {"measurement": "cell count", "setting": "compound dose 5 µM", "result": "0.851 ± 0.095"}]}, {"compound": "CC(C)[C@]12O[C@H]1[C@@H]1O[C@@]13[C@@]1(C)CCC4=C(COC4=O)[C@@H]1C[C@@H]1O[C@@]13C2=O", "note": "[Triptonide]", "values": [{"measurement": "cell count", "setting": "compound dose 1 µM", "result": "0.55 ± 0.15"}, {"measurement": "cell count", "setting": "compound dose 5 µM", "result": "0.428 ± 0.048"}]}, {"compound": "C[C@@]1(C(=O)O)CC[C@]2(C)CC[C@]3(C)C4=CC(=O)c5c(cc(O)c(O)c5C=O)[C@]4(C)CC[C@@]3(C)[C@@H]2C1", "note": "[Demethylzeylasteral]", "values": [{"measurement": "cell count", "setting": "compound dose 1 µM", "result": "0.942 ± 0.013"}, {"measurement": "cell count", "setting": "compound dose 5 µM", "result": "0.921 ± 0.026"}]}, {"compound": "COc1c(C)c(O)cc2[o+]c(-c3ccccc3)ccc12.[O-][Cl+3]([O-])([O-])[O-]", "note": "[Dracorhodin perchlorate]", "values": [{"measurement": "cell count", "setting": "compound dose 1 µM", "result": "1.06 ± 0.12"}, {"measurement": "cell count", "setting": "compound dose 5 µM", "result": "1.13 ± 0.041"}]}, {"compound": "C=C(CO)C(=O)O[C@H]1CC(=C)[C@@H]2C[C@H](O)C(=C)[C@@H]2[C@H]2OC(=O)C(=C)[C@@H]21", "note": "[Cynaropicrin]", "values": [{"measurement": "cell count", "setting": "compound dose 1 µM", "result": "0.625 ± 0.068"}, {"measurement": "cell count", "setting": "compound dose 5 µM", "result": "0.332 ± 0.11"}]}, {"compound": "COc1cc2c(cc1OC)-c1c(oc3c4c(ccc3c1=O)OC(C(C)C)C4)CO2", "note": "(stereo unspecified)", "values": [{"measurement": "cell count", "setting": "compound dose 1 µM", "result": "1.16 ± 0.49"}, {"measurement": "cell count", "setting": "compound dose 5 µM", "result": "0.683 ± 0.16"}]}, {"compound": "O=c1[nH]c2ccc(Cl)cc2c(N[C@@H]2CN3CCC2CC3)c1-c1nc2ccccc2[nH]1", "values": [{"measurement": "cell count", "setting": "compound dose 1 µM", "result": "0.469 ± 0.09"}, {"measurement": "cell count", "setting": "compound dose 5 µM", "result": "0.569 ± 0.13"}]}, {"compound": "NCCCNCCSP(=O)(O)O", "values": [{"measurement": "cell count", "setting": "compound dose 1 µM", "result": "1.03 ± 0.032"}, {"measurement": "cell count", "setting": "compound dose 5 µM", "result": "1.01 ± 0.093"}]}, {"compound": "O=C1Nc2ccc3ncsc3c2/C1=C/c1cnc[nH]1", "values": [{"measurement": "cell count", "setting": "compound dose 1 µM", "result": "1.05 ± 0.059"}, {"measurement": "cell count", "setting": "compound dose 5 µM", "result": "0.772 ± 0.011"}]}, {"compound": "C/C=C(\\C)C(=O)O[C@H]1C[C@@H](OC(C)=O)[C@@]2(C(=O)OC)CO[C@H]3[C@@H](O)[C@@](C)([C@]45O[C@@]4(C)[C@H]4C[C@@H]5O[C@@H]5OC=C[C@@]54O)[C@H]4[C@]1(CO[C@]4(O)C(=O)OC)[C@@H]32", "values": [{"measurement": "cell count", "setting": "compound dose 1 µM", "result": "1.12 ± 0.081"}, {"measurement": "cell count", "setting": "compound dose 5 µM", "result": "1 ± 0.13"}]}, {"compound": "Cc1cc2c(C(C)C)c(O)c(O)c(C=O)c2c(O)c1-c1c(C)cc2c(C(C)C)c(O)c(O)c(C=O)c2c1O", "values": [{"measurement": "cell count", "setting": "compound dose 1 µM", "result": "1.13 ± 0.073"}, {"measurement": "cell count", "setting": "compound dose 5 µM", "result": "0.723 ± 0.17"}]}, {"compound": "O=C1CCC[C@@H]2[C@H]3CCCN4CCC[C@@H](CN12)[C@@H]34", "note": "[Matrine]", "values": [{"measurement": "cell count", "setting": "compound dose 1 µM", "result": "0.897 ± 0.14"}, {"measurement": "cell count", "setting": "compound dose 5 µM", "result": "0.738 ± 0.11"}]}, {"compound": "CN[C@@H]1C[C@H]2O[C@@](C)([C@@H]1OC)n1c3ccccc3c3c4c(c5c6ccccc6n2c5c31)C(=O)NC4", "note": "[Staurosporine]", "values": [{"measurement": "cell count", "setting": "compound dose 1 µM", "result": "0.0345 ± 0.011"}, {"measurement": "cell count", "setting": "compound dose 5 µM", "result": "0.0235 ± 0.018"}]}, {"compound": "CC(=O)O[C@H]1[C@H]2O[C@]23[C@@H]2CC[C@@H]4C[C@@H](O)CC[C@]4(C)[C@H]2CC[C@]3(C)[C@H]1c1ccc(=O)oc1", "note": "[Cinobufagin]", "values": [{"measurement": "cell count", "setting": "compound dose 1 µM", "result": "0.01 ± 0.014"}, {"measurement": "cell count", "setting": "compound dose 5 µM", "result": "0.039 ± 0.021"}]}, {"compound": "Cc1ccc(OCCn2c(C)c(C=C3C(=O)NC(=S)NC3=O)c3ccccc32)c(C)c1", "values": [{"measurement": "cell count", "setting": "compound dose 1 µM", "result": "0.742 ± 0.14"}, {"measurement": "cell count", "setting": "compound dose 5 µM", "result": "0.684 ± 0.21"}]}]}
